Assay results reported in PubChem BioAssay AID1688 (National Center for Advancing Translational Sciences (NCATS), 2009).
Hit rate of the full screen: of about 220,000 compounds, about 2,400 (1.1%) were called active. This list was built around the results that the source calls inconclusive (neither active nor inactive); the mix of calls is not that of the screen. Calls follow the shape of the dose curve; as a rule, active = well fitted inhibition curve with a large enough effect; inconclusive = small, poorly fitted or top-dose-only effect, or effect the other way; inactive = no such curve, though single readings can be large or run the other way. Potencies of inconclusive entries are doubtful fits and often do not repeat. The source holds several records for some structures; these can differ, active in one and inactive in another.

assay: qHTS Multiplex Assay to Identify Dual Action Probes in a Cell Model of Huntington: Aggregate Formation (GFP); settings: PC12 HttQ103-GFP aggregates, Acumen cytometry, 40 h; activity change, negative = inhibition: at 46.1 µM (top of the series) unless noted; also: nearly all actives have a fitted effect of over 60% in size
Summary of the method: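 PC12 cells stably carrying ecdysone-inducible HTT exon 1 Q103–GFP were induced with tebufenozide (100 nM final) and treated with library compounds in titration. GFP aggregates in lysates were counted by laser scanning cytometry.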
% is scaled to controls: 0 for no effect and ±100 for the full control effect; potency is read from the fitted curve at half-maximal effect.

SMILES | Potency | activity change, negative = inhibition
CC1C(=O)NN=C1C(=O)N/N=C\C(Br)=C\c1ccccc1 (centres undefined) | inconclusive: 0.501 µM [activator, full curve, poor fit] | 
COc1ccc(CS(=O)(=O)/C(Cl)=C(/Cl)C(=O)Nc2ccc(OC)nc2)cc1 | inconclusive: 35.5 µM [inhibitor, single point] | 
CCOC(=O)N1CCN(c2cc(=O)n(-c3cccc(C)c3)c(=O)[nH]2)CC1 | inconclusive: 3.16 µM [activator, partial curve] | 
CN(C(=O)CSc1nnc(Nc2ccccc2)s1)C1CCS(=O)(=O)C1 (centres undefined) | inconclusive: 0.891 µM [inhibitor, single point] | 
CCOc1ccc(CN(CCO)CCO)cc1C(=O)OC | inconclusive: 5.62 µM [activator, single point] | 
CCC(C)NC(=S)NNC(=O)c1ccc(C(C)(C)C)cc1 (centres undefined) | inconclusive: 35.5 µM [inhibitor, single point] | 
COc1ccc(N(C(=O)CCl)C(C(=O)NC2CCCCC2)c2cccnc2)cc1 (centres undefined) | active: 22.4 µM | 
CSc1nc(C)cc(Oc2ccccc2)n1 | inconclusive: 6.31 µM [activator, partial curve] | 
CCOC(=O)c1sc(NC(=O)Cc2c(F)cccc2Cl)nc1C | inconclusive: 25.1 µM [inhibitor, single point] | 
COc1ccc([N+](=O)[O-])cc1NS(=O)(=O)c1ccc(Cl)c(C(=O)Nc2sc3c(c2C#N)CCCCC3)c1 | inconclusive: 31.6 µM [inhibitor, single point] | 
Cc1c(Cl)cccc1NS(=O)(=O)c1ccc2c(c1)C1C=CCC1C(c1ccc(C(=O)O)cc1)N2 (centres undefined) |  | inactive: -11% [at 9.22 µM]
COc1ccc(-n2nnc3c(SCC(=O)Nc4ccc5c(c4)OCCO5)ncnc32)cc1 | inactive | 
CCCC(=O)Nc1cccc(NC(=O)c2ccc3c(c2)OCCO3)c1 | inconclusive: 35.5 µM [inhibitor, single point] | 
COc1ccc(-c2nnc(NC(=O)c3ccccc3C)o2)cc1 |  | inactive: -1.15% [at 9.22 µM]
CCOc1cc(/C=C/C(=O)Nc2ccc(C(=O)NCCN(CC)CC)cc2)ccc1OCC(C)C | inconclusive: 14.1 µM [inhibitor, single point] | 
O=S(=O)(Cc1cc(N2CCOCC2)nc(-c2ccccn2)n1)c1ccccc1 | inconclusive: 35.5 µM [inhibitor, single point] | 
O=C(CSc1ncnc2c1cnn2CCc1ccccc1)Nc1cccc(C(F)(F)F)c1 | inconclusive: 2.82 µM [inhibitor, single point] | 
COc1cc(CNC(=O)c2cccc(COc3ccc(Cl)cc3)c2)cc(OC)c1 | inconclusive: 17.8 µM [inhibitor, single point] | 
CN1CCN(CCCNC(=O)c2ccc(/C=C3\Sc4ccccc4N(Cc4ccc(F)cc4)C3=O)cc2)CC1 | inconclusive: 35.5 µM [inhibitor, single point] | 
O[C@@H](c1cc(C(F)(F)F)nc2c(C(F)(F)F)cccc12)[C@H]1CCCCN1 | inconclusive: 35.5 µM [inhibitor, single point] | 
Cc1ccc(NNC(=O)C(O)(c2cccc(C(F)(F)F)c2)c2cccc(C(F)(F)F)c2)cc1 | inconclusive: 15.8 µM [inhibitor, single point] | 
C/C(=N\NC(=O)c1ccncc1)c1cc2ccccc2oc1=O | inconclusive: 35.5 µM [inhibitor, single point] | 

Some of these compounds in order of molar mass, descending:
SMILES | Potency | activity change, negative = inhibition
COc1ccc([N+](=O)[O-])cc1NS(=O)(=O)c1ccc(Cl)c(C(=O)Nc2sc3c(c2C#N)CCCCC3)c1 | inconclusive: 31.6 µM [inhibitor, single point] | 
Cc1c(Cl)cccc1NS(=O)(=O)c1ccc2c(c1)C1C=CCC1C(c1ccc(C(=O)O)cc1)N2 (centres undefined) |  | inactive: -11% [at 9.22 µM]
O=C(CSc1ncnc2c1cnn2CCc1ccccc1)Nc1cccc(C(F)(F)F)c1 | inconclusive: 2.82 µM [inhibitor, single point] | 
COc1ccc(CS(=O)(=O)/C(Cl)=C(/Cl)C(=O)Nc2ccc(OC)nc2)cc1 | inconclusive: 35.5 µM [inhibitor, single point] | 
COc1cc(CNC(=O)c2cccc(COc3ccc(Cl)cc3)c2)cc(OC)c1 | inconclusive: 17.8 µM [inhibitor, single point] | 
O=S(=O)(Cc1cc(N2CCOCC2)nc(-c2ccccn2)n1)c1ccccc1 | inconclusive: 35.5 µM [inhibitor, single point] | 
CCC(C)NC(=S)NNC(=O)c1ccc(C(C)(C)C)cc1 (centres undefined) | inconclusive: 35.5 µM [inhibitor, single point] | 
CCOc1ccc(CN(CCO)CCO)cc1C(=O)OC | inconclusive: 5.62 µM [activator, single point] | 

(next part)

SMILES | Potency | activity change, negative = inhibition
CCOC(=O)C(C)Sc1ccc2nnc(CCNS(=O)(=O)c3ccccc3)n2n1 (centres undefined) | inactive | 
Fc1ccc(-n2c(-c3ccc4c(c3)OCO4)n[nH]c2=S)cc1Cl | inactive | 
COCCOCCn1c(CCCO)nc2ccccc21 | inactive | 
Fc1ccc(CSc2nc3ccccc3[nH]2)c2ccccc12 | inconclusive: 25.1 µM [inhibitor, single point] | 
COc1ccc(-n2c(-c3ccc(Br)cc3)c[n+]3c2SC(C)C3)cc1 (centres undefined) | active: 10 µM | 
Cc1ccc(S(=O)(=O)NNC(=O)C2Cc3c(ccc4ccccc34)O2)cc1 (centres undefined) | inconclusive: 1.26 µM [inhibitor, single point] | 
CC(CN1c2ccccc2Sc2ccccc21)N(C)C (centres undefined) | active: 28.2 µM | 
Cc1ccc2cn[nH]c2c1NC(N)=S | inconclusive: 11.2 µM [activator, partial curve, poor fit] | 
O=[N+]([O-])c1cccc(S(=O)(=O)N2CCC(c3nc(-c4ccncc4)no3)CC2)c1 | inconclusive: 3.98 µM [activator, full curve, poor fit] | 
O=C(CCCn1cnc([N+](=O)[O-])n1)Nc1cc(Cl)ccc1O | inactive | 
COc1cccc2c(SCC(=O)N/N=C/c3ccccc3)cc(C)nc12 | inconclusive: 11.2 µM [activator, single point] | 
O=C(N/N=C/c1ccc(F)cc1)c1sccc1OCc1ccc(F)cc1 | inconclusive: 10 µM [activator, partial curve] | 
CCc1ccc(OCC(=O)NC(NC(=S)Nc2ccc(Cl)cc2)C(Cl)(Cl)Cl)cc1 (centres undefined) | inactive | 
CCOC(=O)CC(=O)CSc1nnc(Cn2c(=O)sc3ccccc32)n1C | inconclusive: 12.6 µM [inhibitor, partial curve] | 
C=CCn1c(Cc2nc3ccccc3[nH]2)n[nH]c1=S | inactive | 
Cc1ccccc1N=C/C=C1\N(C)c2ccccc2C1(C)C | active: 14.1 µM | 
CCCCc1[nH]c(=O)c(C#N)c2c1CSC(C)(C)C2 | inconclusive: 31.6 µM [activator, single point] | 
O=C(c1ccc(S(=O)(=O)Cc2cc(F)ccc2F)c([N+](=O)[O-])c1)N1CCCC1 | active: 15.8 µM | 
CCOC(=O)C1(Cc2ccc(OC)cc2)CCN(C(=O)Cn2cnnn2)CC1 |  | inactive: -11.6% [at 9.22 µM]
O=C(NC(Cc1c[nH]c2ccccc12)C(=O)N/N=C/c1cccc2ccccc12)c1cccs1 (centres undefined) | inconclusive: 35.5 µM [activator, single point] | 
Cc1nn(C)c(Cl)c1CN1CCN(CC(C)C)C(CCO)C1 (centres undefined) | inactive | 
N/C(Cc1ccc([N+](=O)[O-])cc1)=N\OC(=O)c1ccc(Br)cc1 | inconclusive: 14.1 µM [activator, single point] | 
